From patent publication US20120014875
For part of these data: Results from cells or extracts need not show a direct contact.

Amino acid sequences for entries named in this document (tags omitted). A change or cut given only in a name is not applied to a line headed by its entry.
UniProt Q04609: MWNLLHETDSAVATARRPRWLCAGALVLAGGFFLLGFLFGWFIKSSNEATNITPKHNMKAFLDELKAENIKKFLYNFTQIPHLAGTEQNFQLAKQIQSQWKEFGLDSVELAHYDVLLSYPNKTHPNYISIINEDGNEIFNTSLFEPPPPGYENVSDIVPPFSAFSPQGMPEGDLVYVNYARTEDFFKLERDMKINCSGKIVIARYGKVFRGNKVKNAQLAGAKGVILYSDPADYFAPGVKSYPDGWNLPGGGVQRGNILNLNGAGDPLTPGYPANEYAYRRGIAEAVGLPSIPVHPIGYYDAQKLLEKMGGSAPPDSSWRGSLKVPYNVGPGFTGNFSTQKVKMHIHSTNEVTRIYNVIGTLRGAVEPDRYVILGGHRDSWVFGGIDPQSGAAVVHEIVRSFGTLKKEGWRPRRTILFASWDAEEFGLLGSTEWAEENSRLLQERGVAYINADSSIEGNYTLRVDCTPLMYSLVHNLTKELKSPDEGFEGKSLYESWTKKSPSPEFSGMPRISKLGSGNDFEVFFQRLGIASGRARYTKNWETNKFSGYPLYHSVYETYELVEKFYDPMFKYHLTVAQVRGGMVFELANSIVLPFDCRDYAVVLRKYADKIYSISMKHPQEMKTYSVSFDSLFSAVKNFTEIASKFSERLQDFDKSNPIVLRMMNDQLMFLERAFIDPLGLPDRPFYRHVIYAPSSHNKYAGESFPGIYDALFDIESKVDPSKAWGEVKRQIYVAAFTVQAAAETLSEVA
UniProt Q9UPY3: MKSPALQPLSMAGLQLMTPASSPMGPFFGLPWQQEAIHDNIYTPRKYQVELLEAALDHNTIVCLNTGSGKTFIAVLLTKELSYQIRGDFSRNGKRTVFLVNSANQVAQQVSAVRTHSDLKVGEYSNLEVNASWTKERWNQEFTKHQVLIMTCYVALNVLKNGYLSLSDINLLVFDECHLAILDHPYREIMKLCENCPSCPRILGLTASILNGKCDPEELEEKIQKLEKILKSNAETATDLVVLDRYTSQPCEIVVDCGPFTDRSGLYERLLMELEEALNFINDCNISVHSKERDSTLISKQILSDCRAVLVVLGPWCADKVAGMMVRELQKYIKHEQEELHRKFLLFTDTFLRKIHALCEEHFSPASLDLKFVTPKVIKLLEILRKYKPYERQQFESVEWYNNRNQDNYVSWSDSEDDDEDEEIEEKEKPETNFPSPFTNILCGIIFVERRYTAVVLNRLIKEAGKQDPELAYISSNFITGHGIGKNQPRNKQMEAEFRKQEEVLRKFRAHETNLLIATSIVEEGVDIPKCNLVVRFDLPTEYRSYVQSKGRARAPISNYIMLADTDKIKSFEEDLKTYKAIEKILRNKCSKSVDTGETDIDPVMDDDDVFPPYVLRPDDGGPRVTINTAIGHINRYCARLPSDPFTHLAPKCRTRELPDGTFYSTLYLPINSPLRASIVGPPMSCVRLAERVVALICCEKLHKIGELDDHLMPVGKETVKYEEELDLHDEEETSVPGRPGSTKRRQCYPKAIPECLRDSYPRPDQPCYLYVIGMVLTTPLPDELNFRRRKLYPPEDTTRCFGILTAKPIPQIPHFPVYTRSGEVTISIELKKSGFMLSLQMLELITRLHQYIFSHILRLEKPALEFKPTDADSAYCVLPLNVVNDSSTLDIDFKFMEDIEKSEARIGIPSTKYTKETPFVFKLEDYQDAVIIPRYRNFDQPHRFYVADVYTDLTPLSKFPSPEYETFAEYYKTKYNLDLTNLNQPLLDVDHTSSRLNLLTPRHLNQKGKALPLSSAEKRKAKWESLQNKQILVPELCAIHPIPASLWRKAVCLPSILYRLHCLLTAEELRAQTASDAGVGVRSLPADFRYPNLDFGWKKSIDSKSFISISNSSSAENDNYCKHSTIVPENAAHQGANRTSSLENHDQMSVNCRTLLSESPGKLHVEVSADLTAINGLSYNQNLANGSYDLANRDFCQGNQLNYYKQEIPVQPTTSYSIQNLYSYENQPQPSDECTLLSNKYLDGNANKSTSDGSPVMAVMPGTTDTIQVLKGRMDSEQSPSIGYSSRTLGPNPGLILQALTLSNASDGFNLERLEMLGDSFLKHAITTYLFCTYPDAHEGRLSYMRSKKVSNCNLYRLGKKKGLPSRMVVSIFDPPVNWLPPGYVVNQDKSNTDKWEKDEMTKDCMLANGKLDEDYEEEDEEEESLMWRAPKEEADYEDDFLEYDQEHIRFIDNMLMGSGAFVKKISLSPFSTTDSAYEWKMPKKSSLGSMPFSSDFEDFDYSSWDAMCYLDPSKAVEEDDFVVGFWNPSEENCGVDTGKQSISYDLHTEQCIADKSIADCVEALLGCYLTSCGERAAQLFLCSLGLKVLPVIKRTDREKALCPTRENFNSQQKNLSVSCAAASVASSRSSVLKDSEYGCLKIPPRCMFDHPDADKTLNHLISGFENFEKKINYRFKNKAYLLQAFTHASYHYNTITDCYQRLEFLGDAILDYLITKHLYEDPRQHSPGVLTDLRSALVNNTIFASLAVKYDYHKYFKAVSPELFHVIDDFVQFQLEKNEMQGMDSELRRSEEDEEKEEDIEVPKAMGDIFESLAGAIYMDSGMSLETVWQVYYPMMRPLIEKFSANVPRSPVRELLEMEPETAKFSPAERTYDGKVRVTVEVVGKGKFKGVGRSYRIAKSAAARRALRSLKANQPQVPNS

Legend:
[1] = biological target: PSMA (prostate-specific membrane antigen) (Homo sapiens) (UniProt Q04609); test: binding assay; details: 37 C, protein on the cell surface, label: 32P
[2] = biological target: PSMA (prostate-specific membrane antigen) (Homo sapiens) (UniProt Q04609); test: flow cytometry; details: 2'-F pyrimidines in both strands, binds 22Rv1(1.7), no binding to PC-3, 37 C, protein on the cell surface, label: fluorescent
Dicer (Homo sapiens) = Dicer (Homo sapiens) (UniProt Q9UPY3); test: enzyme reaction in vitro; details: 37 C, 1-2 h, purified recombinant protein, protein details: recombinant, Genlantis T520002, label: 32P, variant of A10-3.2 (39nt truncation)
[3] = biological target: PSMA (prostate-specific membrane antigen) (Homo sapiens) (UniProt Q04609); test: filter binding; details: 2'-F pyrimidines; affinity for LNCaP cells comparable to full-length A10 (0-2 nM RNA, fixed cells, 37 C); specific versus PSMA-negative PC-3 cells; protein on the cell surface; label: 32P; variant of A10 (full-length PSMA aptamer, 71nt)
[4] = 2'-F pyrimidines in long strand, short strand unmodified, cleaved to about 21-mer duplex products
[5] = 2'-F pyrimidines in long strand, short strand unmodified, 32P-RNA binding to LNCaP and 22Rv1(1.7) cells by scintillation, specific versus PC-3, variant of A10-3.2 (39nt truncation)

Sequence	activity on this sequence (Dicer (Homo sapiens); [4])	binding result [1, 5]	also measured
GGGAGGACGAUGCGGAUCAGCCAUGUUUACGUCACUCCUUGUCAAUCCUCAUCGGCAGACGACUCGCCCGA [A10 (full-length PSMA aptamer, 71nt)]	–	–	binding result ([1]; 2'-F pyrimidines, 32P-RNA cell binding (scintillation and filter), LNCaP, DPBS with Ca/Mg, tRNA and poly(I:C) block, specific versus PSMA-negative PC-3 cells): binds
GGGAGGACGAUGCGGAUCAGCCAUGUUUACGUCACUCCUAAAAGCACUUGGCAAAGCCGCCCUU / GGGCGGCUUUGCCAAGUGCUU [SWAP-2'F chimera]	–	–	binding result ([2]; 69% internalization after 0.5 M NaCl wash, variant of SWAP chimera): binds
GGGAGGACGAUGCGGAUCAGCCAUGUUUACGUCACUCCUAAAAGCACUUGGCAAAGCCGCCCUU / GGGCGGCUUUGCCAAGUGCUU [SWAP chimera]	active	binds	–
GGGAGGACGAUGCGGAUCAGCCAUGUUUACGUCACUCCUAAAAGCACUUGGCAAAGCCGCCCUU / GGGCGGCUUUGCCAAGUGCUU [SWAP-2'F-PEG chimera]	–	–	binding result ([2]; 20 kDa PEG at 5' end of short (passenger) strand, 45% internalization after 0.5 M NaCl wash, variant of SWAP-2'F chimera): binds
GGGCGGCUUUGCCAAGUGCUUGGGAGGACGAUGCGGAUCAGCCAUGUUUACGUCACUCCUAAGCACUUGGCAAAGCCGCCCUU [Stem Loop chimera]	–	–	activity on this sequence (Dicer (Homo sapiens); 2'-F pyrimidines, end-labeled Stem Loop RNA cleaved to about 21-mer duplex products): active; binding result ([1]; 2'-F pyrimidines, 32P-RNA binding to LNCaP and 22Rv1(1.7) cells by scintillation, specific versus PC-3, variant of A10-3.2 (39nt truncation)): binds
GGGAGGACGAUGCGGAUCAGCCAUGUUUACGUCACUCCUAAAAGGGCGGCUUUGCCAAGUGCUU / GCACUUGGCAAAGCCGCCCUU [OVH chimera]	active	binds	–
GGGAGGACGAUGCGGAUCAGCCAUGUUUACGUCACUCCUUGUCAAUCCUCAUCGGCAGACGACUCGCCCGAAAGGGCGGCUUUGCCAAGUGC / GCACUUGGCAAAGCCGCCCUU [A10-Plk1 chimera]	–	–	binding result ([1]; 2'-F pyrimidines in long strand, short strand unmodified, 32P-RNA binding to LNCaP and 22Rv1(1.7) cells by scintillation, DPBS with Ca/Mg, specific versus PC-3, variant of A10 (full-length PSMA aptamer, 71nt)): binds
GGGAGGACGAUGCGGAUCAGCCAUGUUUACGUCACUCCUAAAAGGGCGGCUUUGCCAAGUGUUU / GCACUUGGCAAAGCCGCCCUU [G-U chimera]	active	binds	–
GGGAGGACGAUGCGGAUCAGCCAUGUUUACGUCACUCCU [A10-3.2 (39nt truncation)]	–	–	binding result [3]: binds
GGGAGGACGAUGCGGAUCAGCCAUGUUUACGUCACUCCUAAAAGGGCGGCUUUGCCAAGUGC / GCACUUGGCAAAGCCGCCCUU [BLUNT chimera]	active	binds	–
